Literature values, collected in patent US20110097268A1, “RADIOHALOIMATINIBS AND METHODS OF THEIR SYNTHESIS AND USE IN PET IMAGING OF CANCERS” (priority 2006, published 2011).

Test system: Activation loop mutations of c-Kit involving codon D816
Details: c-Kit codon D816 activation loop mutations (AML, systemic mastocytosis, seminoma); cited from earlier work

SMILES: Cc1ccc(NC(=O)c2ccc(CN3CCN(C)CC3)cc2)cc1Nc1nccc(-c2cccnc2)n1 [STI-571, N-{5-[4-(4-methylpiperazinemethyl)-benzoylamido]-2-methylphenyl}-4-[3-(4-methyl)-pyridyl]-2-pyrimidine amine]
- IC50: 5 to 10 µM
